Here are results for 1 substance from article PMC9992707.

Amino acid sequences for entries named in this document (tags omitted).
UniProt Q9QZL0: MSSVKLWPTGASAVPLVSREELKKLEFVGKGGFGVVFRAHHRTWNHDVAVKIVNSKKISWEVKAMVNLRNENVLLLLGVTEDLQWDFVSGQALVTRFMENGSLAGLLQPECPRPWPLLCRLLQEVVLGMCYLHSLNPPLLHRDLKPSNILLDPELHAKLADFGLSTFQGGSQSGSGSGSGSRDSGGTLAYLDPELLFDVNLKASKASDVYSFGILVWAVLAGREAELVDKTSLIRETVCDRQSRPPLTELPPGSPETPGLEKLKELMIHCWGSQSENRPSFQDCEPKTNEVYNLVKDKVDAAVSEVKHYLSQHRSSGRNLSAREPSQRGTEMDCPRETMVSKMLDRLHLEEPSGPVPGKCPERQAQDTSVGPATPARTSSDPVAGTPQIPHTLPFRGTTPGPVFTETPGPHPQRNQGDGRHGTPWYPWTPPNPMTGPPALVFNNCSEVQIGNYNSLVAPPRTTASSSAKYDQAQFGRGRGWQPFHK

These are yes or no findings as the source states them, for the method shown. In cells and extracts the contact can be indirect. Some entries that bind do so weakly or less than the wild type. Sequences can lack the tags named with a protein.

The target of this test is T1, 3×Flag-HA-ZBP1 (UniProt Q9QY24).
T1 sequence: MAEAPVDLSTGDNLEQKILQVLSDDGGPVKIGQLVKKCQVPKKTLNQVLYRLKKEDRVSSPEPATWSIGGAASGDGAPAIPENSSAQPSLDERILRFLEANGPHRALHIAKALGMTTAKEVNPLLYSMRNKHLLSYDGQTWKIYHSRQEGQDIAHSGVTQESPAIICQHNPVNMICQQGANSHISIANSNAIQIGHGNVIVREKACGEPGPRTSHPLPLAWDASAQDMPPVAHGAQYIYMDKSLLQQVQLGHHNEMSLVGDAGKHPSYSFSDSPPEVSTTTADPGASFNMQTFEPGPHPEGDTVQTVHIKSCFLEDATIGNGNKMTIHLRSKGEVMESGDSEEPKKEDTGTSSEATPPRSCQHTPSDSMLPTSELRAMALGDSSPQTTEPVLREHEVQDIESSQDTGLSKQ
Nature of the test: co-IP; lysate of Setdb1 cKO mES cells overexpressing 3×Flag-HA-ZBP1 or RIP1-HA (Setdb1 knockout, 2iL condition); lysis buffer 50 mM Tris-HCl pH 7.4, 1% NP-40, 150 mM NaCl, 1 mM EDTA, 5% glycerol; anti-HA magnetic beads or anti-Flag M2 beads, 3 h at 4 °C; 5 washes.

Take RIPK3 (from UniProt Q9QZL0 1-486): the binding result is listed as “binds”.
